Results reported in PMC6646356, “The AAA + ATPase TorsinA polymerizes into hollow helical tubes with 8.5 subunits per turn” (Nature Communications, 2019).
Results are given in words; binding and its absence hold for the method and conditions named.

Chains of the proteins cited; added tags and fusions are not shown. Lines headed by an entry give the natural chain unless they say otherwise; changes in a name come on top. A line that says so, or that is headed by a name, gives the form on record, which may keep a tag or linker. Residues count along the entry.
MBP-TorsinA E171Q (residues 51–332) (O14656, form named): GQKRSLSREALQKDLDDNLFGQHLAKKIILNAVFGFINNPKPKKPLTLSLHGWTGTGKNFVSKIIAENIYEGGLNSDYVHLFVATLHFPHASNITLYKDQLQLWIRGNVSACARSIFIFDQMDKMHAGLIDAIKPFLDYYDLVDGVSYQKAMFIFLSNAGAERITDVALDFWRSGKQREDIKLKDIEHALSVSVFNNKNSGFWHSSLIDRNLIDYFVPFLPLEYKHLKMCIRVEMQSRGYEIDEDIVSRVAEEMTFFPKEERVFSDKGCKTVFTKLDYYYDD
TorsinA D188A (O14656, form named): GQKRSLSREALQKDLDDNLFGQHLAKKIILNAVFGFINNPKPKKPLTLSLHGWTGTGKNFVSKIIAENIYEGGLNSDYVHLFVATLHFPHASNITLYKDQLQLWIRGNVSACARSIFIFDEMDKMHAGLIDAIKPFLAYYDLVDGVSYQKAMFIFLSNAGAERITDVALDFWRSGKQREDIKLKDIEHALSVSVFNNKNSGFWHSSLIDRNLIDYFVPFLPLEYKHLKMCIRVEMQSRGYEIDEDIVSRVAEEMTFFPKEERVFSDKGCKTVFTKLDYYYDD
TorsinA D188Y (O14656, form named): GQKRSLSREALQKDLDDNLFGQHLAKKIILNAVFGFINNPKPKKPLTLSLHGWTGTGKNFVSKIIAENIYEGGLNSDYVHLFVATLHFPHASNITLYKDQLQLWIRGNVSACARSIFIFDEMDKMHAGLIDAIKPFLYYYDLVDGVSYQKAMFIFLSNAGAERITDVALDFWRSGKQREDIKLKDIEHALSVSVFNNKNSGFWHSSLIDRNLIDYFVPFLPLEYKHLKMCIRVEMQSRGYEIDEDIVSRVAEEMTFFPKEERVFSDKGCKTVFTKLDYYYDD
TorsinA D264A (O14656, form named): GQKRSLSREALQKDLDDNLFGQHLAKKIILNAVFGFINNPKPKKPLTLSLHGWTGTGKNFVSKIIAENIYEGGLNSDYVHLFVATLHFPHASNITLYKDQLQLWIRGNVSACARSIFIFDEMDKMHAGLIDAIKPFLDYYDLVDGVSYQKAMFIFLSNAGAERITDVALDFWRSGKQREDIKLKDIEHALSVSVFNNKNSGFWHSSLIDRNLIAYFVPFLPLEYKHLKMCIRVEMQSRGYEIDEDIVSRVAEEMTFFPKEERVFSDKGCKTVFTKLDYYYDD
TorsinA G251Y (O14656, form named): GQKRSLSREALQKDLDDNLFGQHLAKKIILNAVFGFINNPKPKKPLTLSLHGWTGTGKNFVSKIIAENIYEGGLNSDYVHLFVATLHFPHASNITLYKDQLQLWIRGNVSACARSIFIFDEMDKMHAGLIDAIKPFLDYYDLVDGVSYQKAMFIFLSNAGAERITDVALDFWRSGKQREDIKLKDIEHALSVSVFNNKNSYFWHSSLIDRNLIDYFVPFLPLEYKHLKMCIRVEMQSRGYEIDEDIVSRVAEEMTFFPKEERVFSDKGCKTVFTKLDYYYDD
TorsinA K148E (O14656, form named): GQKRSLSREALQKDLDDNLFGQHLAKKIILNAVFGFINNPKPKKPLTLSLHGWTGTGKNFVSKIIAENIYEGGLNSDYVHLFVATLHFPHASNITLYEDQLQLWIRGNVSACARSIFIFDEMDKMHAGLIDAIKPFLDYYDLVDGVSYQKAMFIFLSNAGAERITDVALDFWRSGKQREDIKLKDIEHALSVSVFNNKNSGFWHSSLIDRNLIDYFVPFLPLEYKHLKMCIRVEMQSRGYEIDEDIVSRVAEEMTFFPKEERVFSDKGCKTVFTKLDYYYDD
TorsinA K184E (O14656, form named): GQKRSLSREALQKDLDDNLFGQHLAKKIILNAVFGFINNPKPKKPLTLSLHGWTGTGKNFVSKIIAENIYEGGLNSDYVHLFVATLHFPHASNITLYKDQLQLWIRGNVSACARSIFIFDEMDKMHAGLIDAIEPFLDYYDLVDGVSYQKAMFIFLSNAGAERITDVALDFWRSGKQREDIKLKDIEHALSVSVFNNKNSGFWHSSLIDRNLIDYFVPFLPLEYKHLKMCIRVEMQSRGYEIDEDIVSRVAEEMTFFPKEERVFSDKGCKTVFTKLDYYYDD
TorsinAΔE (deletion of glutamate 303) (O14656, form named): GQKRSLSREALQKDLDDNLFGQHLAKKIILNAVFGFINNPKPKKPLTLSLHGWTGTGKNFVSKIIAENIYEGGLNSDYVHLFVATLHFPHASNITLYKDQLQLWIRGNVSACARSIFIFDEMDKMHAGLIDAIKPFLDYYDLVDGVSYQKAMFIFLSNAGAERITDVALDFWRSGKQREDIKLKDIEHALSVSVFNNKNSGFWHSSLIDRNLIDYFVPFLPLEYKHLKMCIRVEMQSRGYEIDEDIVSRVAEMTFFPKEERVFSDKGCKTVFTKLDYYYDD

Assays:
Test in all cases: negative-stain electron microscopy; purified TorsinA variants without liposomes, diluted in ATP-containing buffer (HEPES/NaOH pH 8.0, NaCl, 10 mM MgCl2, ATP), 2% uranyl acetate stain; filament formation (self-polymerisation); MBP tag uncleaved or cleaved with 3C protease; both purified
[1] = molecular target: MBP-TorsinA E171Q (residues 51–332) (human) (UniProt O14656)
TorsinA D188A (human) = TorsinA D188A (human) (UniProt O14656)
TorsinA D188Y (human) = TorsinA D188Y (human) (UniProt O14656)
TorsinA D264A (human) = TorsinA D264A (human) (UniProt O14656)
TorsinA G251Y (human) = TorsinA G251Y (human) (UniProt O14656)
TorsinA K148E (human) = TorsinA K148E (human) (UniProt O14656)
TorsinA K184E (human) = TorsinA K184E (human) (UniProt O14656)
[2] = molecular target: TorsinAΔE (deletion of glutamate 303) (human) (UniProt O14656)

Substance: MBP-TorsinA E171Q (residues 51–332) (from UniProt O14656 51-332) (domain or fragment)
- binding [1]: no binding

Substance: TorsinA D188A (from UniProt O14656 51-332) (domain or fragment)
- binding (TorsinA D188A (human)): no binding

Substance: TorsinA D188Y (from UniProt O14656 51-332) (domain or fragment)
- binding (TorsinA D188Y (human)): no binding

Substance: TorsinA D264A (from UniProt O14656 51-332) (domain or fragment)
- binding (TorsinA D264A (human)): no binding

Substance: TorsinA G251Y (from UniProt O14656 51-332) (domain or fragment)
- binding (TorsinA G251Y (human)): no binding

Substance: TorsinA K148E (from UniProt O14656 51-332) (domain or fragment)
- binding (TorsinA K148E (human)): no binding

Substance: TorsinA K184E (from UniProt O14656 51-332) (domain or fragment)
- binding (TorsinA K184E (human)): no binding

Substance: TorsinAΔE (deletion of glutamate 303) (from UniProt O14656 51-332) (domain or fragment)
- binding [2]: no binding
